Results reported in PubChem BioAssay AID248 (DTP/NCI, 2004).
The list is a part of this screen's results and no random one: it gathers tests that were run many times, whatever their T/C, doses with no T/C, and many T/C values between a quarter and a half above the control. Other doses and runs of a compound stand elsewhere. T/C is the treated group as % of the vehicle group. Some doses have a count of surviving animals in place of a T/C: the source holds a T/C of zero for them, seemingly a mark for toxic or unscored doses. Some survivor counts are full or nearly so, which does not show that the dose was tolerated: the source hardly ever lists a survival T/C far under the control, and the zero likely stands for such cases as well. Survivors were counted at the toxicity check, usually on the fifth day, unless a day is given; later deaths do not show. Schedules are NCI's codes, taken here to give the interval after Q, in days (D) or hours (H), and the number of doses after X. Some structures stand for samples that the source files as different forms (salt, stereo form or complex); doses refer to the form tested. Some entries hold several experiments; the results are listed from low to high. Where survival is the endpoint, this PubChem deposit counts one and a half times the control or more as active, and values a quarter to a half above the control carry no call in these data; other NCI protocols may use other cut-offs. Some T/C values carry the count of animals alive at the toxicity check (mostly the fifth day); where none is given, no animal had died by that day.

System: L1210 leukemia ip in BDF1 mice, survival T/C
Assay: NCI In Vivo Anticancer Drug Screen. Data for tumor model L1210 Leukemia (intraperitoneal) in B6D2F1 (BDF1) mice
Settings: higher T/C = longer survival
[1] = T/C endpoint: mean survival time, dose: 400.0 mg/kg/injection, schedule: Q04DX003 (ip), vehicle: saline with Tween-80
[2] = T/C endpoint: mean survival time, dose: 400.0 mg/kg/injection, schedule: Q01DX009 (ip), vehicle: saline
[3] = T/C endpoint: mean survival time, dose: 400.0 mg/kg/injection, schedule: Q04DX003 (ip), vehicle: saline
[4] = T/C endpoint: mean survival time, dose: 200.0 mg/kg/injection, schedule: Q04DX003 (ip), vehicle: saline
[5] = T/C endpoint: mean survival time, dose: 200.0 mg/kg/injection, schedule: Q01DX009 (ip), vehicle: saline with Tween-80
[6] = T/C endpoint: mean survival time, dose: 300.0 mg/kg/injection, schedule: Q01DX001 (ip), vehicle: saline
[7] = T/C endpoint: mean survival time, dose: 100.0 mg/kg/injection, schedule: Q04DX003 (ip), vehicle: saline

O=NN(CCCl)C(=O)N[C@H]1CCC[C@@H](O)C1
survivor count (T/C endpoint: mean survival time, dose: 133.0 mg/kg/injection, schedule: Q01DX001 (ip), vehicle: saline with Tween-80): 10 of 10
survivor count (T/C endpoint: mean survival time, dose: 200.0 mg/kg/injection, schedule: Q01DX001 (ip), vehicle: saline with Tween-80): 8 of 10

NC(=O)c1[nH]c(CCCc2ccccc2)nc1N
survivor count (T/C endpoint: mean survival time, dose: 400.0 mg/kg/injection, schedule: Q01DX001 (ip), vehicle: saline with Tween-80): 0 of 6

[Ni+2].[O-]c1ccc(Cl)cc1C=NCc1ccccn1.[O-]c1ccc(Cl)cc1C=NCc1ccccn1
survivor count [1]: 6 of 6

CC1=C(/C=C/C(C)=C/C=C/C(C)=C/C(=O)O)C(C)(C)CCC1
survivor count (T/C endpoint: mean survival time, dose: 134.0 mg/kg/injection, schedule: Q01DX009 (ip), vehicle: steroid suspending solution): 6 of 6
survivor count (T/C endpoint: mean survival time, dose: 200.0 mg/kg/injection, schedule: Q01DX009 (ip), vehicle: steroid suspending solution): 5 of 6
survivor count (T/C endpoint: mean survival time, dose: 300.0 mg/kg/injection, schedule: Q01DX009 (ip), vehicle: steroid suspending solution): 6 of 6

COc1cccc(CC(N)=O)c1OC
survivor count [2]: 6 of 6

CCCCC1=NCCc2c1cc1c([nH]c3ccccc31)c2C
survivor count [3]: 1 of 6

O=COc1ccc([N+](=O)[O-])cc1
survivor count [4]: 2 of 6
survivor count [3]: 1 of 6

CNc1ncnc(NC)c1[N+](=O)[O-]
survivor count (T/C endpoint: mean survival time, dose: 400.0 mg/kg/injection, schedule: Q04DX002 (ip), vehicle: Klucel (hydroxypropylcellulose) (HPC)): 3 of 3

COC(=O)CC(=O)C=P(c1ccccc1)(c1ccccc1)c1ccccc1
survivor count [5]: 1 of 6
survivor count (T/C endpoint: mean survival time, dose: 400.0 mg/kg/injection, schedule: Q01DX009 (ip), vehicle: saline with Tween-80): 0 of 6

CCCCCCCCCCCC[n+]1ccc(C#N)cc1
survivor count (T/C endpoint: mean survival time, dose: 75.0 mg/kg/injection, schedule: Q01DX001 (ip), vehicle: saline): 0 of 6
survivor count (T/C endpoint: mean survival time, dose: 150.0 mg/kg/injection, schedule: Q01DX001 (ip), vehicle: saline): 0 of 6
survivor count [6]: 0 of 6

COc1ccc(/C=C2/CSC/C(=C/c3ccc(OC)c(OC)c3)C2=O)cc1OC
survivor count (T/C endpoint: mean survival time, dose: 100.0 mg/kg/injection, schedule: Q01DX009 (ip), vehicle: saline): 6 of 6
survivor count [2]: 6 of 6

O=CN/N=C/c1ccc(Cl)cc1Cl
survivor count [6]: 0 of 6

CN(C)CCCn1nc(-c2ccccc2)oc1=O
survivor count [6]: 1 of 6

C[n+]1cccc2ccccc21
survivor count [7]: 6 of 6
survivor count [4]: 0 of 6 and 1 of 6
survivor count [3]: 0 of 6 and 1 of 6

CN1CCN(C(=O)Nc2cccc(Cl)c2Cl)CC1
survivor count (T/C endpoint: mean survival time, dose: 200.0 mg/kg/injection, schedule: Q01DX009 (ip), vehicle: saline): 5 of 6
survivor count [2]: 1 of 6

CCCN(CCC)CCCN(CCC)CCCCN(CCC)CCCN(CCC)CCC
survivor count (T/C endpoint: mean survival time, dose: 200.0 mg/kg/injection, schedule: Q01DX001 (ip), vehicle: saline): 2 of 4
survivor count (T/C endpoint: mean survival time, dose: 400.0 mg/kg/injection, schedule: Q01DX001 (ip), vehicle: saline): 0 of 4

CCOC(=O)C(Br)CCCC(Br)C(=O)OCC (stereo unspecified)
survivor count [5]: 5 of 6

COC(=O)/C=C\C(=O)O
survivor count [3]: 2 of 6

Nc1nc(N)nc(N)n1 (tested in a mixture with another compound)
survivor count [1]: 2 of 3

Nc1nc(N)c2cc(S(=O)(=O)c3ccccc3)ccc2n1
T/C (T/C endpoint: median survival time, dose: 50.0 mg/kg/injection, schedule: Q01DX009 (ip), vehicle: saline with Tween-80): 130 % of control
T/C (T/C endpoint: median survival time, dose: 100.0 mg/kg/injection, schedule: Q01DX009 (ip), vehicle: saline with Tween-80): 140 % of control
T/C (T/C endpoint: median survival time, dose: 200.0 mg/kg/injection, schedule: Q01DX009 (ip), vehicle: saline with Tween-80): 139 % of control

O=[N+]([O-])c1ccccn1
survivor count (T/C endpoint: mean survival time, dose: 25.0 mg/kg/injection, schedule: Q01DX009 (ip), vehicle: saline): 4 of 6
survivor count (T/C endpoint: mean survival time, dose: 150.0 mg/kg/injection, schedule: Q01DX001 (ip), vehicle: other): 0 of 6
survivor count (T/C endpoint: mean survival time, dose: 300.0 mg/kg/injection, schedule: Q01DX001 (ip), vehicle: other): 0 of 6

Nc1nc(N)c2c(Cl)c(CNc3ccc(C(=O)NC(CC(=O)O)CC(=O)O)cc3)ccc2n1
T/C (T/C endpoint: mean survival time, dose: 6.25 mg/kg/injection, schedule: Q04DX003 (ip), vehicle: saline): 134 % of control [5 of 6 alive]
survivor count [7]: 4 of 6
survivor count [4]: 3 of 6
survivor count [3]: 4 of 6
